The data set can be described thus: general procedure: solution-phase peptide synthesis. The note with it: late stage modification step.

“N-[1-(R)-Carboxy-3-methylbutyl]-L-leucyl-L-leucyl-L-leucyl-L-alaninamide” displayed a step yield of 96%.

The record behind these values is patent US4771037 (dated 1988).
